Measured values from patent US20230265037A1, “METHOD FOR MAN[…] CALCIUM CITRATE BY USING SHELL AND APPLICATION THEREOF” (KOREA RESEARCH INSTITUTE OF CHEMICAL TECHNOLOGY, priority 2020, published 2023).

Assay: Fluorine removal experiment (residual fluorine concentration of filtrate by ion concentration meter)
Settings: for Residual fluorine concentration: HF solution 1,000 ppm (experimental value 970 ppm), reacted 30 minutes
Procedure: In order to confirm the fluorine removal rate using the powder or solution prepared in Examples 1 to 3, a fluorine removal experiment was performed by the following method, and the residual fluorine concentration of the filtrate remaining after the experiment was measured using an ion concentration meter and is shown in Tables 2 to 4. At this time, a Metrohm 930 compact IC Flex model from Metrohm was used as the ion concentration meter.
A 50% hydrofluoric acid (HF) solution with a concentration of 1,000 ppm was prepared, and so that the molar ratio of calcium ion:fluoride ion is 1:2, 2:2, 10.56 g and 21.12 g of the mono calcium citrate powder recovered in Example 1 were mixed with 1 L of water to make a solution, the hydrofluoric acid and the solution were reacted for 30 minutes, and the results are shown in Table 2.
A 50% hydrofluoric acid (HF) solution with a concentration of 1,000 ppm was prepared, 4.75 g, 9.5 g, and 19.1 g of the tricalcium citrate powder recovered in Example 2 were mixed with 1 L of water so that the molar ratio of calcium ion:fluoride ion was 1:2, 2:2, and 4:2 to form a slurry, the hydrofluoric acid and the slurry were reacted for 30 minutes, and the results are shown in Table 3. (Tricalcium citrate (C12H10Ca3O14) contains 3 moles of calcium ions per mole, so ⅓ of the theoretical amount is added.)
A 50% hydrofluoric acid (HF) solution with a concentration of 1,000 ppm was prepared, the solution in which the shells and citric acid were dissolved prepared in Example 3 was mixed with 1 L of water and reacted for 30 minutes, and the results are shown in Table 4.

[1] = molar ratio calcium ion:fluoride ion 1:2
[2] = molar ratio calcium ion:fluoride ion 2:2

Structure (SMILES)	Residual fluorine concentration [1]	Residual fluorine concentration [2]	residual concentration of fluorine (summary) (summary of Tables 2 and 3)	Residual fluorine concentration (molar ratio calcium ion:fluoride ion 4:2)
O=C([O-])CC(O)(CC(=O)O)C(=O)O.O=C([O-])CC(O)(CC(=O)O)C(=O)O.[Ca+2] [Example 1, mono calcium citrate]	7.3 ppm	2.2 ppm	≤ 10 ppm	
O=C([O-])CC(O)(CC(=O)[O-])C(=O)[O-].O=C([O-])CC(O)(CC(=O)[O-])C(=O)[O-].[Ca+2].[Ca+2].[Ca+2] [Example 2, tricalcium citrate]	23 ppm	16.2 ppm		16.5 ppm
